Among the data in publication doi:10.1101/2025.08.28.672006 are binding values, retold here.

To fix the notation:
T1: FLAG-RAB3A (residues 18–190, Q81L) (UniProt P20336)
T1 sequence: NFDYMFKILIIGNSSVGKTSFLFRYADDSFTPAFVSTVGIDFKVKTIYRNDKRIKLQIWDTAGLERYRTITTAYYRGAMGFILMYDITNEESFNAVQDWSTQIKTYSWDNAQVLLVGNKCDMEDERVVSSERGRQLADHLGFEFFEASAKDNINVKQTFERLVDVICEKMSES

T2: phospho-FLAG-RAB3A (residues 18–190, Q81L, pT86) (UniProt P20336)
T2 sequence (chain, phosphothreonine at 86 (pT86)): T1 sequence

B1: ERC1 (protein, UniProt Q99MI1 1-1120)
chain: MYGSARSVGKVEPSSQSPGRSPRLPRSPRLGHRRTNSTGGSSGNSVGGGSGKTLSMENIQSLNAAYATSGPMYLSDHENVGAETPKSTMTLGRSGGRLPYGVRMTAMGSSPNIASSGVASDTIAFGEHHLPPVSMASTVPHSLRQARDNTIMDLQTQLKEVLRENDLLRKDVEVKESKLSSSMNSIKTFWSPELKKERALRKDEASKITIWKEQYRVVQEENQHMQMTIQALQDELRIQRDLNQLFQQDSSSRTGEPCVAELTEENFQRLHAEHERQAKELFLLRKTLEEMELRIETQKQTLNARDESIKKLLEMLQSKGLSAKATEEDHERTRRLAEAEMHVHHLESLLEQKEKENNMLREEMHRRFENAPDSAKTKALQTVIEMKDSKISSMERGLRDLEEEIQMLKSNGALSSEEREEEMKQMEVYRSHSKFMKNKVEQLKEELSSKDAQGEELKKRAAGLQSEIGQVKQELSRKDTELLALQTKLETLTNQFSDSKQHIEVLKESLTAKEQRAAILQTEVDALRLRLEEKETMLNKKTKQIQDMAEEKGTQAGEIHDLKDMLDVKERKVNVLQKKIENLQEQLRDKEKQMSSLKERVKSLQADTTNTDTALTTLEEALADKERTIERLKEQRDRDEREKQEEIDTYKKDLKDLREKVSLLQGDLSEKEASLLDIKEHASSLASSGLKKDSRLKTLEIALEQKKEECLKMESQLKKAHEATLEARASPEMSDRIQQLEREISRYKDESSKAQTEVDRLLEILKEVENEKNDKDKKIAELESLTSRQVKDQNKKVANLKHKEQVEKKKSAQMLEEARRREDSLSDSSQQLQDSLRKKDDRIEELEEALRESVQITAEREMVLAQEESARTNAEKQVEELLMAMEKVKQELESMKAKLSSTQQSLAEKETHLTNLRAERRKHLEEVLEMKQEALLAAISEKDANIALLELSSSKKKTQEEVAALKREKDRLVQQLKQQTQNRMKLMADNYEDDHFRSSRSNQTNHKPSPDQIIQPLLELDQNRSKLKLYIGHLTALCHDRDPLILRGLTPPASYNADGEQAAWENELQQMTQEQLQNELEKVEGDNAELQEFANTILQQIADHCPDILEQVVNALEESS
B2: ERC2 (protein, UniProt Q6PH08 1-957)
chain: MYGSARTISNLEGSPSRSPRLPRSPRLGHRRTSSGGGGGTGKTLSMENIQSLNAAYATSGPMYLSDHEGVASTTYPKGTMTLGRATNRAVYGGRVTAMGSSPNIASAGLSHTDVLSYTDQHGGLSGSSHHHHHQVPSMLRQVRDSTMLDLQAQLKELQRENDLLRKELDIKDSKLGSSMNSIKTFWSPELKKERVLRKEEAARMSVLKEQMRVSHEENQHLQLTIQALQDELRTQRDLNHLLQQESGNRGAEHFTIELTEENFRRLQAEHDRQAKELFLLRKTLEEMELRIETQKQTLNARDESIKKLLEMLQSKGLPSKSLEDDNERTRRMAEAESQVSHLEVILDQKEKENIHLREELHRRSQLQPEPAKTKALQTVIEMKDTKIASLERNIRDLEDEVQMLKANGVLNTEDREEEIKQIEVYKSHSKFMKTKIDQLKQELSKKESELLALQTKLETLSNQNSDCKQHIEVLKESLTAKEQRAAILQTEVDALRLRLEEKESFLNKKTKQLQDLTEEKGTLAGEIRDMKDMLEVKERKINVLQKKIENLQEQLRDKDKQLTNLKDRVKSLQTDSSNTDTALATLEEALSEKERIIERLKEQRERDDRERLEEIESFRKENKDLKEKVNALQAELTEKESSLIDLKEHASSLASAGLKRDSKLKSLEIAIEQKKEECNKLEAQLKKAHNIEDDSRMNPEFADRLKQLDKEASYYRDECGKAQAEVDRLLEILKEVENEKNDKDKKIAELESLTLRHMKDQNKKVANLKYNQQLEKKKNAQLLEEVRRREDSMVDNSQHLQIEELMNALEKTRQELDATKARLASTQQSLAEKEAHLANLRIERRKQLEEILEMKQEALLAAISEKDANIALLELSASKKKKTQEEVMALKREKDRLVHQLKQQTQNRMKLMADNYDEDHHHYHHHHHHHHHRSPGRSQHSNHRPSPDQDDEEGIWA
B3: RILPL1 (protein, UniProt Q9JJC6 1-406)
chain: MEEPLGSPPAALSALEKNVAELTVMDVYDIASLVGHEFERVIDQHGCESIARLMPKVVRVLEILEVLVSRHHVAPELDELRLELDRLRVERMDRIEKERKHQKELELVEDVWRGEAQDLLSQIAQLQEENKQLMTNLNHKDVGFSEEEFQKQEGMSERERQVMKRLKEVVDKQRDELRAKDRELGLKNEDVEALQQQQTRLMKINHDLRHRVTVVEAQGKALIEQKVELEADLQTKEQEMGSLRAELGKLRERLQGEHSQNGEEEEAEIQPQPDGEESISDAEKAALDLKDPNRPRFTLQELRDVLHERNELKSKVFLLQEELAYYKSEEIEEENRIPQPPPITHPRTSPQPESGIKRLFSFFSRDKKRLANTQRPTHIHESFGQWAITQRDDGYTEQGQEALQHL
B4: RILPL2 (protein, UniProt Q99LE1 1-197)
chain: MEDHPVREEEDGEEDEGALAKSPLQLTTDDVYDISYVVGRELMALGSDPRVTRLQFKIVRVMEMLETLVNEGSLAVEELRMERDNLKQEVEGLRKAGVSGAQVNLGPDKMVVDLTDPNRPRFTLQELREVLQERNKLKSQLLLVQEELQCYRSGLLPPRETPGGRREKDAVVAMGNGEKEERTIMKKLFSFRSGKHT

These are yes or no findings as the source states them, for the method shown. In cells and extracts the contact can be indirect. A yes stands for co-enrichment or nearness to the bait. Other partners may have been found. Sequences can lack the tags named with a protein.

The target in one assay is T1, FLAG-RAB3A (residues 18–190, Q81L). The assay is described as follows: affinity purification with mass spectrometry; FLAG-RAB3A or phospho-FLAG-RAB3A bound to anti-DYKDDDDK magnetic agarose as bait; whole brain lysate of mice given MLi-2 (30 mg/kg, 2 h) added for 1 h at 4 °C; lysis buffer 50 mM Tris-HCl pH 7.4, 150 mM NaCl, 0.5% NP40, 5 mM MgCl2; washes with lysis buffer plus 500 mM NaCl; DIA MS (Orbitrap Astral), 6 replicates a condition; only the target purified.
In the case of B1, the binding result was “binds”.

For B2, the binding result is “binds”.

For another assay, the target named is T2, phospho-FLAG-RAB3A (residues 18–190, Q81L, pT86). The description is as above.
For the molecule B3, the binding entry is given as “binds”.

For B4, the binding entry is listed as “binds”.

In the case of B1, the binding entry is recorded as “binds”.

Take B2: the binding result is “binds”.
